Laboratory results as given in article PMC4890593.

Protein sequences, listed by entry. Tags and fused reporters are not part of them. Lines headed by an entry give the natural chain unless they say otherwise; changes in a name come on top.
UniProt P23258: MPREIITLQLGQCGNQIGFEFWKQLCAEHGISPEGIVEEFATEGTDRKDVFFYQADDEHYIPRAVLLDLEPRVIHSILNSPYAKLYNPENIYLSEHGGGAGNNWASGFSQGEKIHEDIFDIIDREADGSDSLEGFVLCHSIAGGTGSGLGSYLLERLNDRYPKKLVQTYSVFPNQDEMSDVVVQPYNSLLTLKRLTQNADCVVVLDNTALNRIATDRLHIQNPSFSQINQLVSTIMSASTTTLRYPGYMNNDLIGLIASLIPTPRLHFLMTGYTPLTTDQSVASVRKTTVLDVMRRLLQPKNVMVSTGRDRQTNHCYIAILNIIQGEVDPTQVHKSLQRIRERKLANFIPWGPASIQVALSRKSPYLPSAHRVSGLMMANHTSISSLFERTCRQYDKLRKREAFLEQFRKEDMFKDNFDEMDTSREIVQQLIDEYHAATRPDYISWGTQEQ

Columns and labels:
[1] = target: T1, dsRed-14-3-3γ (UniProt P61981); assay: FRET or BRET; sensitized emission FRET in fixed HCT116 cells transfected with GFP-γ-Tubulin (donor) and dsRed-14-3-3γ (acceptor)
T1 sequence: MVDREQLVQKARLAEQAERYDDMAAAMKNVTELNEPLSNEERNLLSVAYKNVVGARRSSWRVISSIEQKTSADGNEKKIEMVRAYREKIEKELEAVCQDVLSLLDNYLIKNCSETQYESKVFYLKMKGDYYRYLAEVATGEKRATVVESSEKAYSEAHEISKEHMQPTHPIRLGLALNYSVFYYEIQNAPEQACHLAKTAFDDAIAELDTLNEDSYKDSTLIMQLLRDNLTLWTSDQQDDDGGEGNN

[2] = target: T2, 14-3-3γ (human (endogenous in HCT116)) (UniProt P61981); assay: FRET or BRET; sensitized emission FRET in fixed cells stained with antibodies to γ-Tubulin and 14-3-3γ (Alexa-Fluor-488 donor, Alexa-Fluor-546 acceptor); 14-3-3γ-knockdown cells compared with vector-control cells
T2 sequence: T1 sequence

[3] = target: T3, GST-14-3-3γ (UniProt P61981); assay: pull-down; biochemical analysis with bacterially purified 14-3-3 proteins (Supplementary Fig. S2e); source of γ-Tubulin not told; only the target purified
T3 sequence: T1 sequence

Row | Substance | binding [1] | binding [2] | binding [3]
1 | GFP-γ-Tubulin (from UniProt P23258) | binds |  | 
2 | γ-Tubulin (from UniProt P23258) |  | binds | binds

Results are given in words; binding and its absence hold for the method and conditions named. Binding seen in cells or lysates may run through a third protein. Binding can be weak; no strength is given. For part of these data: Sequences can lack the tags named with a protein.
